Results on one molecule are retold here after paper PMC7728919.

Sequences of proteins named here, by UniProt entry; tags and fusion partners are left off. Residues count along the entry.
UniProt Q8R4G9, residues 26-499: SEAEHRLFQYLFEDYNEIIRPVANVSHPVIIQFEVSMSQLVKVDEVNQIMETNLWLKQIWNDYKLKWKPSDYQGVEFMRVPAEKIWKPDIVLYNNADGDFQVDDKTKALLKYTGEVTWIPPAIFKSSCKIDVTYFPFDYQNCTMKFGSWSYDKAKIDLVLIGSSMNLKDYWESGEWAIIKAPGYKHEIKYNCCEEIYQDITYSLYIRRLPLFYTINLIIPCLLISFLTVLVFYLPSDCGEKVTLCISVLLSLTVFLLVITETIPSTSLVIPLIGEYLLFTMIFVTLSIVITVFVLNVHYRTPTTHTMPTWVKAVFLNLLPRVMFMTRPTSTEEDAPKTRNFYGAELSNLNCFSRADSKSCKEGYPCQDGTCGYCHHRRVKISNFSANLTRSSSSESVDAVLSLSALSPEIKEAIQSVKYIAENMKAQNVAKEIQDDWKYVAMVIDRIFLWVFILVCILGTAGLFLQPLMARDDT

No constants are given. Whether binding was seen depends on the method and setting. In cells and extracts the contact can be indirect. Some results given as binding are weak or reduced against the parent protein; the word gives no strength.

This assay concerns the target CHRNA3, endogenous in mouse adrenal gland chromaffin cells (mouse (endogenous in AGCCs)) (UniProt Q8R4G9). Description: FRET or BRET; acceptor photobleaching FRET on fixed primary mouse AGCCs stained with primary and fluorophore-conjugated secondary antibodies; rhodamine (CHRNA3) donor, Alexa Fluor-488 (EPHB6) acceptor; confocal microscope. For orientation: BRET reads energy transfer from a luciferase to a nearby fluorophore.

B1: EPHB6, endogenous in mouse adrenal gland chromaffin cells (receptor, UniProt O08644 33-1014)
chain: LEEVLLDTTGETSEIGWLTYPPGGWDEVSVLDDQRRLTRTFEACHVAGLPPGSGQDNWLQTHFVERRGAQRAHIRLHFSVRACSSLGVSGGTCRETFTLYYRQADEPDGPDSIAAWHLKRWTKVDTIAADESFPASSSSSSWAVGPHRTGQRVGLQLNVKERSFGPLTQRGFYVAFQDTGACLALVAVKLFSYTCPSVLRAFASFPETQASGAGGASLVAAVGTCVAHAEPEEDGVGGQAGGSPPRLHCNGEGRWMVAVGGCRCQPGHQPARGDKLCQACPEGSYKALAGNVPCSPCPARSHSPDPAAPVCPCLQGFYRASSDPPEAPCTGPPSAPRELWFEVQGSALMLHWRLPQELGGRGDLLFNVVCKECGGHGEPSSGGMCRRCRDEVHFDPRQRGLTESRVLVGGLRAHVPYILEVQAVNGVSELSPDPPQAAAINVSTSHEVPSAVPVMHQVSRAANSITVSWPQPEQTNGNILDYQLRYYDQAEDESHSFTMTSETNTATVTRLSPGHIYGFQVRARTAAGHGPYGGKVYFQTLPQGELSSQLPEKLSLVIGSILGALAFLLLAAITVLAVIFQRKRRGTGYTEQLQQYSSPGLGVKYYIDPSTYDDPCQAIRELAREVDPTYIKIEEVIGAGSFGEVRRGRLQPRGRREQAVAIQALWAGGAESLKMTFLGRAALLGQFQHPNILRLEGVVTKSRPVMVLTELMELGPLDSFLRQREGQFSSLQLVAMQRGVAAAMQYLSSFAFVHRALSARSVLVNSHLVCKVARLGHSPQGSSSLLRWAAPEVITHGKYTTSSDVWSFGILMWEVMSYGERPYWDMNEQEVLNAIEQEFRLPPPPGCPPGLHLLMLDTWQKDRARRPHFDQLVAAFDKMIRKPDTLQAEGGSGDRPSQALLNPVALDFPCLDSPQAWLSAIGLECYQDNFSKFGLSTFSDVAQLSLEDLPGLGITLAGHQKKLLHNIQLLQQHLRQPGSVEV
Turning to B1, the binding entry is listed as “binds”.
